This assay addresses Thioredoxin domain-containing 5 (TXNDC5) (mouse (endogenous in AML12)) (UniProt Q91W90). Put plainly: affinity purification with mass spectrometry; immunoprecipitation of AML12 WT and TXNDC5-KO lysates with rabbit anti-TXNDC5 on protein A magnetic beads, overnight at 4 °C, PBS-T washes, glycine pH 2.0 elution; LC-MS/MS; proteins found in WT and absent in KO.

The chains behind the UniProt entries cited, without tags or fusion partners. Residues count along the entry.
UniProt Q91W90, residues 34-417: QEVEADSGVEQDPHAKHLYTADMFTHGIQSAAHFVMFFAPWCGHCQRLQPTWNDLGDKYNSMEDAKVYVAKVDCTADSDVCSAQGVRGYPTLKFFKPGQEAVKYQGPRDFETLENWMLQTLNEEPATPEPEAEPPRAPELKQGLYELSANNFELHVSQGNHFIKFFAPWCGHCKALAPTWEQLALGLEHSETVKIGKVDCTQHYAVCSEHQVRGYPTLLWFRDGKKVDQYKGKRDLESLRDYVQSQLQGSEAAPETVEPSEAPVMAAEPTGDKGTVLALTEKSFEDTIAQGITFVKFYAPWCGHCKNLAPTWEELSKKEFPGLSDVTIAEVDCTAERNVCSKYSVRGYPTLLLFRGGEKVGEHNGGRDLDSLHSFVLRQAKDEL
UniProt P38647, residues 47-679: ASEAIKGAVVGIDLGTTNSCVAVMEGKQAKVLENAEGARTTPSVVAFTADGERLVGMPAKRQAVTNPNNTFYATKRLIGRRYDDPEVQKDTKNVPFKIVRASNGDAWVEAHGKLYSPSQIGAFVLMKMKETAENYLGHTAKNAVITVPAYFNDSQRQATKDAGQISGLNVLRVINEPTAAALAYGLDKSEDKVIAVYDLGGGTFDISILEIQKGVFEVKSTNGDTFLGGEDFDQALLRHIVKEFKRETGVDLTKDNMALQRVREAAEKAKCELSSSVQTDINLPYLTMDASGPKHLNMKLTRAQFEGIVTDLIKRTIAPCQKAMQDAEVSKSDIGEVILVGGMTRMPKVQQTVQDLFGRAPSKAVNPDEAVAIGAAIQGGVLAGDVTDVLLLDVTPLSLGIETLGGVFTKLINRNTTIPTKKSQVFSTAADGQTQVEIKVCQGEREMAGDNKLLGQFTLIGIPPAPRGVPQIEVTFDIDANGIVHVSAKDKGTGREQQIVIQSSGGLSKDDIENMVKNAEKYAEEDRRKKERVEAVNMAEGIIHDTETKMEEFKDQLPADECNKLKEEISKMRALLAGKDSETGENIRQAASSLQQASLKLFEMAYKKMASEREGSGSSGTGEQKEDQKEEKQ

These are yes or no findings as the source states them, for the method shown. In cells and extracts the contact can be indirect. These calls come from enrichment with a bait or labelling near it, and not all partners need be listed.

In the case of HSPA9 (from UniProt P38647 47-679), the binding entry was “binds”.

B1: PRDX6 (protein, UniProt O08709 1-224)
chain: MPGGLLLGDEAPNFEANTTIGRIRFHDFLGDSWGILFSHPRDFTPVCTTELGRAAKLAPEFAKRNVKLIALSIDSVEDHLAWSKDINAYNGETPTEKLPFPIIDDKGRDLAILLGMLDPVEKDDNNMPVTARVVFIFGPDKKLKLSILYPATTGRNFDEILRVVDSLQLTGTKPVATPVDWKKGESVMVVPTLSEEEAKQCFPKGVFTKELPSGKKYLRYTPQP
Take B1: the binding result is reported as “binds”.

(Values after PMC10743020.)
